Measurements taken from patent US20180237485A1.
Results are given in words; binding and its absence hold for the method and conditions named. Some entries that bind do so weakly or less than the wild type. Where a sequence is shown, tags or fusion partners need not be part of it.

The chains behind the UniProt entries cited, without tags or fusion partners. Residues count along the entry.
UniProt O35607, residues 27-1038: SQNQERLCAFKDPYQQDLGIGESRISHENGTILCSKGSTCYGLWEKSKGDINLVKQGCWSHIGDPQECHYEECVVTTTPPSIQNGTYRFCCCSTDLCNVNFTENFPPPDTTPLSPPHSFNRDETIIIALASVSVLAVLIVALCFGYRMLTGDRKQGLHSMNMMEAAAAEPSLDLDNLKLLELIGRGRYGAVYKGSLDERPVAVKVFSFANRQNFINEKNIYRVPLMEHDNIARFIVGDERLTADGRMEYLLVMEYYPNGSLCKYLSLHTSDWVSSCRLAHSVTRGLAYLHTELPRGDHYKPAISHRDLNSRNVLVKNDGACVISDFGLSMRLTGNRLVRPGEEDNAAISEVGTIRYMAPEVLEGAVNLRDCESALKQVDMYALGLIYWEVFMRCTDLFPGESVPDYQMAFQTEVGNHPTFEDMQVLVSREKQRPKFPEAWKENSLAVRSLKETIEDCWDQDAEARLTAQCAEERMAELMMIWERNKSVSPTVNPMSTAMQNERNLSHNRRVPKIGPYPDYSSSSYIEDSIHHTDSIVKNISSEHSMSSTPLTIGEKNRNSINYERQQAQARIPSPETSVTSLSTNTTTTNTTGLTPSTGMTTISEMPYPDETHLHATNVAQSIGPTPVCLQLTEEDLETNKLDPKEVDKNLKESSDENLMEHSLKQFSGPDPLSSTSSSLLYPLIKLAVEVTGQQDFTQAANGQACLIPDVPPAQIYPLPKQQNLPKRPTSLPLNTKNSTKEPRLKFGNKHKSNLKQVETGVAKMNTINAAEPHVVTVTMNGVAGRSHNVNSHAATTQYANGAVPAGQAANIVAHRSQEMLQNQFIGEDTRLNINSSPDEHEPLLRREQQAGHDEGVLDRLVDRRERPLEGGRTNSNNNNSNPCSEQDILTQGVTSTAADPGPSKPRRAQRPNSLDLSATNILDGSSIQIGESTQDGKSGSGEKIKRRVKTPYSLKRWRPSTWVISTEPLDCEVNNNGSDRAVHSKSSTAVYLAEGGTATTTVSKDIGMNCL

Columns and labels:
[1] = target: BMP receptor II (endogenous, in MC3T3-E1 preosteoblasts) (mouse) (UniProt O35607); experiment: confocal microscopy co-localization
[2] = target: BMP receptor II (endogenous, in MC3T3-E1 preosteoblasts) (mouse) (UniProt O35607); experiment: confocal microscopy co-localization of FITC-labeled protein with anti-BMP receptor II staining in MC3T3-E1 preosteoblasts

binding [1]: binds
binding [2]: binds
B1: aMTD442-fused CP-BMP2 recombinant protein (cell-permeable BMP2, M form, fused with His-tag, aMTD442 and SDA) (protein)
chain: MGSSHHHHHHSSGLVPRGSALAALVPAVLVPQAKHKQRKRLKSSCKRHPLYVDFSDVGWNDWIVAPPGYHAFYCHGECPFPLADHLNSTNHAIVQTLVNSVNSKIPKACCVPTELSAISMLYLDENEKVVLKNYQDMVVEGCGCRYMANITVFYNEDFQGKQVDLPPGNYTRAQLAALGIENNTISSVKVPPGVKAILYQNDGFAGDQIEVVANAEELGPLNNNVSSIRVISVPVQPRMANITVFYNEDFQGKQVDLPPGNYTRAQLAALGIENNTISSVKVPPGVKAILYQNDGFAGDQIEVVANAEELGPLNNNVSSIRVISVPVQPR
modifications: FITC-labeled (sites not given)
